From PubChem BioAssay record AID1224904 (Broad Institute, 2016).

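293T-iDUX4 dual-reporter cells; luminescence of the tet-on Italica luciferase control is read after 24 h. The test concentration is not given here. Percent change in the Italica control signal; more negative values mean stronger inhibition, which points to nonspecific, tet-on or cytotoxic effects.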

Values are in %. Common to all entries: measured here: Italica tet-on control reporter. Part of the compounds only, not a random draw; the main read-out is not listed here.

N#Cc1ccc(-c2ccc3c(c2)[C@@H]2[C@@H](CCN2C(=O)Cc2ccccc2)[C@@H](CO)N3)cc1 gave activity change -25.1%.
O=C(Cc1ccncc1)Nc1ccc2c(c1)[C@@H]1C[C@H](CC(=O)N3CCc4ccccc4C3)O[C@@H](CO)[C@@H]1O2 gave activity change -8.607%.
O=C(C[C@@H]1CC[C@H](NC(=O)Nc2cc(F)ccc2F)[C@@H](CO)O1)Nc1ccc(-c2ccccc2)cc1 gave activity change -76.58%.
COCCNC(=O)C[C@@H]1CC[C@@H]2[C@H](COC[C@H](O)CN2Cc2cccc(-c3ccncc3)c2)O1 gave activity change -16.57%.
COc1ccc2c3c([nH]c2c1)[C@@H](CO)N(C(=O)Nc1ccc(F)cc1)CC31CN(Cc2ccccc2OC)C1 gave activity change -61.87%.
O=C(C[C@H]1C[C@@H]2c3cc(NC(=O)Nc4ccc(C(F)(F)F)cc4)ccc3O[C@@H]2[C@@H](CO)O1)NC1CCCCC1 gave activity change -10.93%.
COCC(=O)N1CC2(CCN(Cc3ccc(Cl)cc3)CC2)c2c([nH]c3cc(OC)ccc23)[C@H]1CO gave activity change -59.55%.
CN1c2ccc(-c3ccc(C#N)cc3)cc2[C@H]2[C@H](CCN2C(=O)C2CCCCC2)[C@@H]1CO gave activity change -39.83%.
CCCN1[C@@H]2c3ccc(/C=C/c4ccccc4)c(=O)n3C[C@H]1[C@H](CO)[C@H]2C(=O)NCC1CC1 gave activity change -2.486%.
OC[C@H]1[C@@H](c2ccc(C#Cc3ccccc3)cc2)[C@H]2CN(CC3CCOCC3)CCCCN21 gave activity change 2.757%.
O=C(C[C@H]1C=C[C@H](NC(=O)c2ccc3c(c2)OCO3)[C@H](CO)O1)NC1Cc2ccccc2C1 gave activity change -1.579%.
COc1ccccc1-c1ccc2c(c1)[C@H]1[C@H](CCN1Cc1ccccc1F)[C@@H](CO)N2 gave activity change 2.417%.
C[C@@H](C(=O)N(C)C[C@@H]1OCc2ccccc2-c2c(n(C)c3ccccc23)C(=O)N([C@@H](C)CO)C[C@@H]1C)c1ccccc1 gave activity change -57.6%.
O=S(=O)(Cc1ccccc1)N1CCCCN2[C@@H](CO)[C@@H](c3ccc(-c4ccc(F)cc4)cc3)[C@@H]2C1 gave activity change -67.57%.
C[C@H]1CN([C@@H](C)CO)C(=O)c2c(c3ccccc3n2C)-c2ccccc2CO[C@H]1CN(C)C(=O)Nc1ccccc1C(F)(F)F gave activity change -35.61%.
Cc1ccccc1-c1ccc([C@H]2[C@@H](CO)N3CCCCN(S(=O)(=O)c4ccc(F)cc4)C[C@H]23)cc1 gave activity change 11.42%.
O=C(C[C@@H]1CC[C@@H]2[C@H](COC[C@H](O)CN2Cc2ccc(Oc3ccccc3)cc2)O1)Nc1nccs1 gave activity change -26%.
O=C(C[C@H]1CC[C@H]2[C@@H](COC[C@@H](O)CN2S(=O)(=O)c2ccc(Oc3ccccc3)cc2)O1)Nc1ccccc1 gave activity change -19.4%.
N#Cc1ccc(-c2ccc(C3[C@@H]4CN(S(=O)(=O)c5ccccc5F)C[C@H]3N4)cc2)cc1 (some centres not stated) gave activity change -19.44%.
COc1ccc2c3c([nH]c2c1)[C@@H](CO)N(Cc1ccccc1OC)CC31CCN(C(C)=O)CC1 gave activity change -17.31%.
C[C@@H](NC(=O)C[C@H]1CC[C@@H]2[C@H](COC[C@H](O)CN2C(=O)Nc2cc(Cl)cc(Cl)c2)O1)c1ccccc1 gave activity change -9.185%.
CN1c2ccc(-c3cccc(F)c3)cc2[C@H]2[C@H](CCN2C(=O)c2ccc3c(c2)OCO3)[C@@H]1CO gave activity change -3.739%.
C[C@@H]1CN([C@H](C)CO)C(=O)c2c(c3ccccc3n2C)-c2ccccc2CO[C@@H]1CN(C)S(=O)(=O)c1ccc(Cl)cc1 gave activity change -24.97%.
COc1ccc2c3c([nH]c2c1)[C@@H](CO)N(Cc1ccc(Cl)cc1)CC31CN(Cc2ccccc2)C1 gave activity change -12.89%.
C[C@H](CO)N1C[C@H](C)[C@H](CN(C)S(=O)(=O)c2cccc(F)c2)OCc2ccccc2-c2c(n(C)c3ccccc23)C1=O gave activity change -92.21%.
N#Cc1cccc(-c2ccc(C3[C@@H]4CN(C(=O)Nc5ccccc5)C[C@H]3N4)cc2)c1 (some centres not stated) gave activity change -26.56%.
COCC#Cc1ccc([C@@H]2[C@@H](CO)N3CCCCN(Cc4ccccc4F)C[C@H]23)cc1 gave activity change -0.6064%.
CCS(=O)(=O)N1CC2(C1)[C@@H](c1ccccc1)[C@@H](CO)N2CC1CCCC1 gave activity change 0.9436%.
COc1ccccc1S(=O)(=O)N1CC[C@@H]2[C@H]1c1cc(-c3cccc(C#N)c3)ccc1N(C)[C@H]2CO gave activity change -12.97%.
CCS(=O)(=O)N1CC2(CN(Cc3ccccc3)[C@@H](CO)c3c2c2ccc(OC)cc2n3C)C1 gave activity change -1.472%.
O=C(c1cnccn1)N1CC(=O)N2[C@H](CO)[C@@H](c3ccc(/C=C/c4ccccc4)cc3)[C@@H]2C1 gave activity change -4.492%.
O=C(C[C@@H]1CC[C@@H]2[C@H](COC[C@@H](O)CN2Cc2cccc(C(F)(F)F)c2)O1)NCc1ccc(F)cc1 gave activity change -2.952%.
O=C(C1CCOCC1)N1C[C@@H]2N[C@H](C1)C2c1ccc(/C=C/c2ccccc2)cc1 (some centres not stated) gave activity change 5.026%.
CC(C)NC(=O)N1CCCCN2[C@H](CO)[C@@H](c3ccc(C#Cc4ccccc4)cc3)[C@H]2C1 gave activity change -26.57%.
COCC(=O)Nc1ccc2c(c1)[C@@H]1C[C@H](CC(=O)NCc3ccc(-c4ccccc4)cc3)O[C@@H](CO)[C@@H]1O2 gave activity change -29.1%.

The first 4 entries again:

* N#Cc1ccc(-c2ccc3c(c2)[C@@H]2[C@@H](CCN2C(=O)Cc2ccccc2)[C@@H](CO)N3)cc1 : activity change -25.1%
* O=C(Cc1ccncc1)Nc1ccc2c(c1)[C@@H]1C[C@H](CC(=O)N3CCc4ccccc4C3)O[C@@H](CO)[C@@H]1O2 : activity change -8.607%
* O=C(C[C@@H]1CC[C@H](NC(=O)Nc2cc(F)ccc2F)[C@@H](CO)O1)Nc1ccc(-c2ccccc2)cc1 : activity change -76.58%
* COCCNC(=O)C[C@@H]1CC[C@@H]2[C@H](COC[C@H](O)CN2Cc2cccc(-c3ccncc3)c2)O1 : activity change -16.57%